Test results: patent US20260231994A1, “TASTE-ENHANCING COMPOSITION, METHOD FOR PRODUCING SAME, FOOD PRODUCT, AND METHOD FOR ENHANCING TASTE OF FOOD PRODUCT” (HOUSE FOODS GROUP INC., priority 2023, published 2026)

Experiments:
[1] = Constituent analysis of paprika samples by LC-MS/MS (peak area ratio to internal standard); conditions: constituent specific to heat-treated paprika
[2] = Constituent analysis of unheated and heat-treated coriander by LC-MS/MS (peak area ratio to internal standard); conditions: for Heated Average value, content of cyclic dipeptide (area ratio to standard peak area): heat-treated coriander (250° C. for 6 min); for Heated Average value, content of cyclic dipeptide (area ratio to standard peak area) / Unheated Average value, content of cyclic dipeptide (area ratio to standard peak area): internal standard 47 μg/g L-lysine-13C6 monohydrochloride, n=2; for Magnification (heated/unheated): increase of cyclic dipeptide content in coriander by heating; for Unheated Average value, content of cyclic dipeptide (area ratio to standard peak area): unheated coriander

Substance	content in unheated paprika [1]	Heated Average value, content of cyclic dipeptide (area ratio to standard peak area) [2]	Magnification (heated/unheated) [2]	Unheated Average value, content of cyclic dipeptide (area ratio to standard peak area) [2]
cyclic (Ala-Asp) [Coriander ID 58]	below detection limit	–	–	–
cyclic (Ala-Leu/Ile) [Coriander ID 32]	–	0.645	22.4	0.029
cyclic (Ala-Pro) [Coriander ID 23]	–	0.122	39.7	0.003
cyclic (Ala-Val) [Coriander ID 27]	–	0.710	16.3	0.044
cyclic (Arg-Pro) [Coriander ID 45]	–	0.028	–	–
cyclic (Gly-His) [Coriander ID 4]	below detection limit	–	–	–
cyclic (Gly-Ser) [Coriander ID 5]	below detection limit	–	–	–
cyclic (Gly-Val) [Coriander ID 21]	below detection limit	0.208	–	–
cyclic (Leu/Ile-Val) [Coriander ID 42]	–	1.345	26.3	0.051
cyclic (Phe-Ala) [Coriander ID 33]	–	0.722	5.0	0.145
cyclic (Phe-Pro) [Coriander ID 40]	–	0.385	10.2	0.038
cyclic (Pro-His) [Coriander ID 15]	–	0.010	–	–
cyclic (Pro-Met) [Coriander ID 53]	–	0.142	6.7	0.021
cyclic (Pro-Pro) + cyclic (hyPro-Pro) [Ex. 8]	–	0.297	11.4	0.026
cyclic (Pro-Val) [Coriander ID 29]	–	0.341	34.3	0.010
cyclic (Thr-Pro) [Coriander ID 14]	–	0.833	38.6	0.022
cyclic (Tyr-Asp)	below detection limit	–	–	–
cyclic (hyPro-Leu) + cyclic (hyPro-Ile) cyclic (Pro-Leu) + cyclic (Pro-Ile) [Ex. 13]	–	0.136	24.5	0.006
cyclic (hyPro-Pro) [Coriander ID 17]	below detection limit	–	–	–
